Assay results: patent US20120321641A1 (TORAY INDUSTRIES, published 2012)
No constants are given. Whether binding was seen depends on the method and setting. Some entries that bind do so weakly or less than the wild type.

Target: dog CAPRIN-1 in dog breast cancer tissue (dog)
Experiment: immunohistochemical staining of frozen dog breast cancer sections

- binding: binds
B1: monoclonal antibody #1 prepared in Example 4 (antibody, V domains shown)
VH: AVTLDESGGGLQTPGGGLSLVCKASGFTFSSFDMGWVRQAPGKGLEFVAQINDAGSRTWYATAVKGRATISRDNGQTTVRLQLNNLRAEDTGTYYCTRGSGYVGAGAIDAWGHGTEVIVS
VL: AALTQPSSVSANPGETVKITCSGGSGYYGWYQQQKSPGSAPVTVIYQNDKRPSDIPSRFSGSGSGSTNTLTITGVQAEDEAVYFCGRYDSTDSGIFGAGTTLTVL
notes: also called anti-CAPRIN-1 monoclonal antibody
